# The supplement of paper PMC3334620
# In all, about 33,000 sequences were measured (“E-score (-0.5 to 0.5)”: median about -0.015, highest 2% from about 0.3 on). This is one part of the list.
# Target: T1, Abf1 (UniProt P14164)
# T1 sequence: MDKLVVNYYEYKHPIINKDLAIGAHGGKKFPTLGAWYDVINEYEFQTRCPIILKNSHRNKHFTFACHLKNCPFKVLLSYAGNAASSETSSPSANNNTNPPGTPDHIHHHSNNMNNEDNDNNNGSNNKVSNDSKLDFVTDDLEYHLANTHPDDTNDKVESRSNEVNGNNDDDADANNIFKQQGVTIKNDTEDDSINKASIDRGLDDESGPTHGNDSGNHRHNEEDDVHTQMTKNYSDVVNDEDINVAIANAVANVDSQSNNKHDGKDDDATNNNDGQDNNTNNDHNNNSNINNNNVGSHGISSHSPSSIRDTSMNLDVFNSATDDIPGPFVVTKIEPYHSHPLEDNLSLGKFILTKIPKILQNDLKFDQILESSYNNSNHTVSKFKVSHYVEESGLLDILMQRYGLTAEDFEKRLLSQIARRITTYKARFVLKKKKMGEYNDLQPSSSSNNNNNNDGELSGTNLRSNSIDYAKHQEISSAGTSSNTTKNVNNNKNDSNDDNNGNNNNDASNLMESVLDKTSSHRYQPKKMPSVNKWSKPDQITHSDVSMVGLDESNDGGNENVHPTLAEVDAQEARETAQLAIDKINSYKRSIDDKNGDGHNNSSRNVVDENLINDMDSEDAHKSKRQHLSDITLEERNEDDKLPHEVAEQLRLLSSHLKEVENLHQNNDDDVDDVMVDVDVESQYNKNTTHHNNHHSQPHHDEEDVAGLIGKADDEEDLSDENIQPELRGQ
# Assay: PBM E-score (8-mer binding enrichment) (E-score (-0.5 to 0.5)); higher = stronger / more preferred TF binding
# Details: protein concentration: 200 nM; construct: GST-full length
# Method: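 Universal 'all 10-mer' protein binding microarrays (Agilent AMADID 015681) probed with GST-tagged S. cerevisiae TFs (full-length or DBD) made by in vitro transcription/translation (PURExpress), about 100-200 nM. Bound TF was detected with fluorescent anti-GST. Each ungapped 8-mer (which stands for itself and its reverse complement) is scored by the PBM enrichment score (E-score), a modified Wilcoxon-Mann-Whitney statistic from -0.5 to +0.5, computed with the Universal PBM Analysis Suite. Scale: above 0.35 generally sequence-specific binding.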
row,Sequence,PBM E-score
1,TTGATAAA,0.23
2,ATAACGGG,0.0588
3,CTGTTTAA,-0.163
4,ATACCGGC,0.0536
5,AGTACGGG,0.0191
6,TAAGCTAA,0.174
7,CCTTCGTA,0.292
8,CTTTCGGC,-0.248
9,CACATCTG,-0.183
10,AATCGCAA,-0.0324
11,AAACAAAG,-0.0583
12,ATGGATAC,0.114
13,AAGTAAAC,-0.0812
14,GTCGCCAC,0.0471
15,AGGCACCG,-0.14
16,GAGAGGCA,-0.176
17,CCACACCA,0.0401
18,CGATAGTC,0.181
19,TCATTTAA,0.121
20,CGTGGCAA,-0.0194
21,GTACCGAC,-0.0724
22,AGAACTCT,-0.129
23,TCTGGTAA,-0.0108
24,CCGTTGAA,0.0872
25,CAGAATCC,-0.0308

row,Sequence,PBM E-score
1,ACTAAACC,0.0376
2,ACGAGTGC,0.154
3,TATAACGA,0.282
4,ATCGGCTA,-0.137
5,CCCACCTA,-0.125
6,CATATAGC,-0.0946
7,GCGTAACC,-0.00117
8,ATGGTTAC,-0.0718
9,CGCCACCA,-0.138
10,CGACTTAC,-0.147
11,GGATTGGA,-0.0447
12,ACAGTAAA,-0.0655
13,AAGGGCAG,-0.201
14,GAGTGACC,0.207
15,GGCAATTA,-0.0787
16,ATGAGGAG,-0.0674
17,AGAAGCCA,0.0533
18,ATCGATGC,0.00132
19,CCCGTCAC,0.0669
20,AGCGGCAT,0.0563
21,CCGACTAG,-0.261
22,AAATTTAT,0.272
23,CTTAATGA,0.157
24,GACGATAA,0.363
25,GATCTTCC,0.068

# 3 records drawn at random from the list so far:
row,Sequence,PBM E-score
21,CCGACTAG,-0.261
14,GAGTGACC,0.207
6,CATATAGC,-0.0946

# (cont.)

row,Sequence,PBM E-score
1,AATCACGG,0.213
2,AGTATCAC,0.188
3,TTCACCAA,-0.0311
4,GTCCAGGA,0.0731
5,GCATTTCC,-0.0654
6,CGGCACAG,-0.129
7,GAGATTTA,0.0781
8,AACACTAC,-0.0369
9,ATGCGGAA,-0.0563
10,CCACACGG,0.176
11,GTCGTACA,0.383
12,AGAATCGC,0.0699
13,CACTATGC,0.142
14,ACGCCAAA,0.0414
15,CAAAGCTA,0.0117
16,AGCCGTGC,0.163
17,ACTTAATA,0.0767
18,CCGCGAAA,-0.00148
19,GGATTGAC,0.0426
20,GTTACCCA,-0.218
21,ATATGCAC,-0.00963
22,AGGTGGTC,-0.188
23,GATCGGAC,0.0221
24,ACCTGAGG,-0.32
25,GCGATAGA,0.0104

row,Sequence,PBM E-score
1,AAGATTAC,0.00254
2,AAGTATCA,0.257
3,ATCGTTGG,0.222
4,CAAACCAA,0.0789
5,ACACGCGG,-0.0001
6,GCTACACC,-0.241
7,ATATAGCA,0.00804
8,GCCTGGAA,-0.0478
9,ACATGTAG,0.0945
10,CGTTCAGA,0.0456
11,AGTACAAA,0.101
12,CGGCGATA,0.235
13,AAACTGCC,0.0924
14,CGCTACCC,-0.216
15,CAACACTG,-0.0999
16,CGATAACA,0.106
17,ATGATGCA,0.309
18,ATTGCATA,-0.0436
19,ACACAAAT,0.104
20,AAGCATGG,-0.173
21,ACTGATAT,0.108
22,AGCTAACC,-0.227
23,AACACGAG,0.15
24,CCGCAGAG,-0.139
25,AACCGCGC,0.0269

# 4 neighbouring records already listed, quoted:
row,Sequence,PBM E-score
16,AGCCGTGC,0.163
17,ACTTAATA,0.0767
18,CCGCGAAA,-0.00148
19,GGATTGAC,0.0426

# The results go on:

row,Sequence,PBM E-score
1,GAAGTTCA,-0.0443
2,AGGGCCGC,-0.266
3,AACCAGGT,-0.199
4,ACTTTCGC,0.046
5,AGGTGGAG,-0.0877
6,CGATGCGA,0.0445
7,CTAGCTAG,-0.0715
8,GAAACAAA,0.0874
9,GCTAGTCC,-0.111
10,AGCGACCT,-0.0649
11,AATTCTCA,0.0764
12,AAAGAAAG,0.123
13,AGACGACC,0.0722
14,AGCTCTGA,-0.101
15,AATAGCAT,0.017
16,CCGGTTGA,-0.124
17,ATCGTGGC,0.095
18,TGCAAAAA,0.127
19,GGGGATTA,-0.0416
20,ATTTCTCG,0.19
21,GTACGGAC,0.174
22,GGCTGCCC,-0.152
23,GAATTACC,-0.0942
24,ACGAGCGG,0.0685
25,AGGAGCGC,-0.0184

row,Sequence,PBM E-score
1,GGCTGATA,0.0363
2,ATCCCGGA,-0.0679
3,CAACCAGC,-0.239
4,AAATGGAT,0.0588
5,ACAGGGGG,-0.357
6,GCGCCAGC,-0.233
7,CGAGTATC,0.0111
8,CATTTACC,0.0441
9,CGTTTCAG,0.115
10,AGCATGAG,-0.00821
11,ACGTACCC,0.125
12,CACAGTCA,-0.0568
13,AATATGTG,0.281
14,GTGTGGGA,-0.12
15,CATTCATC,-0.068
16,CGAAAACG,0.122
17,TCAGCGGA,-0.033
18,CGTCAAAG,0.253
19,CCTTATAA,-0.0107
20,CGGATGGA,0.0665
21,AATGATCT,0.324
22,GCCTTATA,0.0222
23,AGGATTAT,-0.193
24,AGCATACC,0.0866
25,CCAAAAGC,-0.0875

row,Sequence,PBM E-score
1,CAGGCATC,-0.0494
2,ACAGTACC,-0.0206
3,ATCGAACC,0.0242
4,ACAACTCG,0.0757
5,TTCTAGAA,0.0597
6,ACAACTGG,0.00703
7,ACGGGTCC,0.142
8,ATTACCAG,-0.0844
9,ACATCTCA,0.0619
10,ACCGCGCG,0.0205
11,TATCCTGA,0.166
12,ATAAGACG,0.116
13,CGTGACTC,-0.0266
14,GATATCCA,0.233
15,ATCAAAAA,0.106
16,CCCTCCAC,-0.185
17,CAGCAGGG,-0.11
18,CGTCACAC,0.261
19,AACATTAG,-0.126
20,TACAAAAA,0.174
21,CAGACGGC,0.0713
22,GCACAGGC,-0.0767
